Results are given in words; binding and its absence hold for the method and conditions named. Binding seen in cells or lysates may run through a third protein. A yes stands for co-enrichment or nearness to the bait. Other partners may have been found. Where a sequence is shown, tags or fusion partners need not be part of it.
What follows are substances tested against T1, GNAT1-GFP (Arabidopsis thaliana) (UniProt Q9C666) (assay: affinity purification with mass spectrometry; GFP-Trap A beads with 2 mg leaf protein of GNAT1-, GNAT2- or GNAT3-GFP overexpressing Arabidopsis lines, 2 h at 4 °C; extraction buffer 50 mM HEPES-KOH pH 7.5, 150 mM NaCl, 10% glycerol, 2 mM EDTA, 5 mM DTT, 0.5% Triton X-100; label-free quantification against a chloroplast-targeted GFP control line; four biological replicates).
T1 sequence: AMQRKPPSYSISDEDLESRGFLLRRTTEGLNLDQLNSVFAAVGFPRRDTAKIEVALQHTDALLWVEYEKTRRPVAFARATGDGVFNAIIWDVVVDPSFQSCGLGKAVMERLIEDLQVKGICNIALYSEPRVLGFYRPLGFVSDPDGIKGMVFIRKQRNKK

Protein sequences, listed by entry. Tags and fused reporters are not part of them. Residues count along the entry.
UniProt Q7X9V3, residues 59-258: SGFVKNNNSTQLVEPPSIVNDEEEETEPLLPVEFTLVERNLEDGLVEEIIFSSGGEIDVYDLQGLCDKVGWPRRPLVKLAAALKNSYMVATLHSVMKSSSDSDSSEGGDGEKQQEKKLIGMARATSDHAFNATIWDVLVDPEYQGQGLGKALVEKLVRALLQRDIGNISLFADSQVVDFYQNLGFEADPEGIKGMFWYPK
UniProt P17745, residues 68-476: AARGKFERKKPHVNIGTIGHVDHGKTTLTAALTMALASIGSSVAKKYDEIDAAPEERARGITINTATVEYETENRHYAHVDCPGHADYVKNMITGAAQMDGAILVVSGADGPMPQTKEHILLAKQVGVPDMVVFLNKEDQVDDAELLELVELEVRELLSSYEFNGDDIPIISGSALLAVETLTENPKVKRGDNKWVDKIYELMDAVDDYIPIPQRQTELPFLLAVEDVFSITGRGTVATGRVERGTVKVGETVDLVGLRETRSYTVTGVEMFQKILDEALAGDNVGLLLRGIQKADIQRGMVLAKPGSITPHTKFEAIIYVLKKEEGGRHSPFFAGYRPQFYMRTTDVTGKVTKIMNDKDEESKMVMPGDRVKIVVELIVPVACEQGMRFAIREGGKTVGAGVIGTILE

binding, binds:
CPN60A, FNRL, FTSZ2-1, FTSZ2-2, GNAT2 (from UniProt Q7X9V3 59-258) (enzyme), PTAC17, RABE1b (from UniProt P17745 68-476), Translocon at the outer Envelope Membrane of Chloroplasts 75-III

These substances were tested against T2, GNAT3-GFP (Arabidopsis thaliana) (UniProt Q940H2) in the same assay as above.
T2 sequence: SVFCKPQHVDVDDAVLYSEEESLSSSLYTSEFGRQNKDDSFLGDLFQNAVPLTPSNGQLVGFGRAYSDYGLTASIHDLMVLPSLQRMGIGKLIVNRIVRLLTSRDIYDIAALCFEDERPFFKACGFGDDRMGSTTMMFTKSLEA

binding, binds:
GNAT2 (from UniProt Q7X9V3 59-258) (enzyme)
